Source: paper PMC13022675
These are yes or no findings as the source states them, for the method shown. In cells and extracts the contact can be indirect. A yes stands for co-enrichment or nearness to the bait. Other partners may have been found.

Sequences of proteins named here, by UniProt entry; tags and fusion partners are left off. Residues count along the entry.
UniProt P27824, residues 21-592: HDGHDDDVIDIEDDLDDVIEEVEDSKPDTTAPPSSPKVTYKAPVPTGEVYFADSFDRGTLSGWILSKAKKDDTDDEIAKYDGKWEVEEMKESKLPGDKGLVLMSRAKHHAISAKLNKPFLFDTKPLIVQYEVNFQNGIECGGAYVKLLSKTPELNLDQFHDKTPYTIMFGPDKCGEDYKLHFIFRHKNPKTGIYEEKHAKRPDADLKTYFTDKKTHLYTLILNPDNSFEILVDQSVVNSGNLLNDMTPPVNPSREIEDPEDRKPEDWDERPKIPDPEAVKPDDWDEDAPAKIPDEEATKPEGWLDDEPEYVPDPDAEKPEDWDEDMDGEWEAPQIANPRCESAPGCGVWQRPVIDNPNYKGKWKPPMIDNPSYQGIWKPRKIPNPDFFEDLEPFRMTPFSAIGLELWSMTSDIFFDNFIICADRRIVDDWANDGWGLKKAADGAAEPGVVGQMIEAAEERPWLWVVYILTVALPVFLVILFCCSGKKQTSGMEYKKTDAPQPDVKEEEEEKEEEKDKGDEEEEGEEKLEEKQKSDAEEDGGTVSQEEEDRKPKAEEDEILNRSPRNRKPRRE

What was measured:
[1] = target: GFP-tagged MR1A (MR1-GFP) expressed in clonal cell line D4 (valine to isoleucine at position 12) (UniProt Q95460); assay: affinity purification with mass spectrometry; MR1-GFP immunoprecipitated with GFPTrap magnetic agarose from 1% digitonin lysates of D4 and D6 cells (dox, 100 μM 6-FP overnight), 4 °C 1 h; on-bead trypsin digestion, data-dependent acquisition (DDA), label-free
[2] = target: GFP-tagged MR1A (MR1-GFP) expressed in clonal cell line D4 (valine to isoleucine at position 12) (UniProt Q95460); assay: affinity purification with mass spectrometry; MR1-GFP immunoprecipitated with GFPTrap magnetic agarose from 1% digitonin lysates of D4 and D6 cells (dox, 100 μM 6-FP overnight), 4 °C 1 h; in-gel digestion, data-independent acquisition (DIA), label-free

Substance | binding [1] | binding [2]
calnexin (from UniProt P27824 21-592) | binds | 
sequestosome 1 (from UniProt Q13501 1-440) |  | binds
